The other results are listed elsewhere or left out.

Amino acid sequences for entries named in this document (tags omitted). A change or cut given only in a name is not applied to a line headed by its entry.
UniProt Q96K31: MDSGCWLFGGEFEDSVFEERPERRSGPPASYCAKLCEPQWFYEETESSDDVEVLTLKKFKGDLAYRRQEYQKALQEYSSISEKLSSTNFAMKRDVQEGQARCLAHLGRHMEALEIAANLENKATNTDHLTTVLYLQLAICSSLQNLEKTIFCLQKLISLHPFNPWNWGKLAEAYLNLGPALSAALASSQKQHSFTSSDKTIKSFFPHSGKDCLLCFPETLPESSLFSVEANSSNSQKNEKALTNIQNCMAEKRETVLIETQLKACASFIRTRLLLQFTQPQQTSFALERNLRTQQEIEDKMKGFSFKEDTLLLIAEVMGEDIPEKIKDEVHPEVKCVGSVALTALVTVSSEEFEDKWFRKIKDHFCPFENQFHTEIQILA
UniProt Q6UWU4: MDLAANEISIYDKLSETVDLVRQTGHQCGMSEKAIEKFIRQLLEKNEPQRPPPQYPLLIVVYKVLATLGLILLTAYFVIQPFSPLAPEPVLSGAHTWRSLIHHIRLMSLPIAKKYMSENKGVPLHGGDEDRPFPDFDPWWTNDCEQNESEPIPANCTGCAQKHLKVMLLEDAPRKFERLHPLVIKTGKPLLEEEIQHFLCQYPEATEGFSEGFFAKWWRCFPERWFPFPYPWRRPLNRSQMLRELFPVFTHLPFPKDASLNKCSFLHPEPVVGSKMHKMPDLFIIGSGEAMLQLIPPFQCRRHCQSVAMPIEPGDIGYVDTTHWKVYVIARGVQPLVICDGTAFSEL
UniProt Q9P1Z2: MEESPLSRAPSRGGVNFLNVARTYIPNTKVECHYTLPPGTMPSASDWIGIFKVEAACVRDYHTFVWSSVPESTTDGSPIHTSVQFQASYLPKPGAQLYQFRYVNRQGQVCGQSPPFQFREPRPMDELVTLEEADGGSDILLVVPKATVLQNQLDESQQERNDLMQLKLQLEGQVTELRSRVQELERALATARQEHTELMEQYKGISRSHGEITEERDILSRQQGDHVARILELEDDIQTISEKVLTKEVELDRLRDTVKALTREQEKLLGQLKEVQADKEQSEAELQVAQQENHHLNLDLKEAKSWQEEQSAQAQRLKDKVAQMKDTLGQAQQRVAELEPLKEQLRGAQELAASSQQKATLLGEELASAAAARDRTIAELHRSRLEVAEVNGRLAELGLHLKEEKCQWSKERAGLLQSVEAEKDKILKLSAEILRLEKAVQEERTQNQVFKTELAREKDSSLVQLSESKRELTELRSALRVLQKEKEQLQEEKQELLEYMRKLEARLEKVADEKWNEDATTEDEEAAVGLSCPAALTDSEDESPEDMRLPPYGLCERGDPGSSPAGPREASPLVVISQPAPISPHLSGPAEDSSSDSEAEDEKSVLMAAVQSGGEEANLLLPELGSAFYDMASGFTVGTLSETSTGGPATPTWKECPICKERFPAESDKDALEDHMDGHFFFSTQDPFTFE
UniProt Q96EU7: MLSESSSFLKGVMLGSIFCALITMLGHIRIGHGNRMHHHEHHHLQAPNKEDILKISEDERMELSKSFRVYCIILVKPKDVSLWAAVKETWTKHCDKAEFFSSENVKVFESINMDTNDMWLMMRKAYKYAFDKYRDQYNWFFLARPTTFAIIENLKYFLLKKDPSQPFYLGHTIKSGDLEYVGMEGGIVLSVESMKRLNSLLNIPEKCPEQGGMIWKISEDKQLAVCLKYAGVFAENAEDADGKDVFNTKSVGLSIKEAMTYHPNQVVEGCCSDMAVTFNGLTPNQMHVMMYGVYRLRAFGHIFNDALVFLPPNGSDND
UniProt Q14444, whole entry, looked up: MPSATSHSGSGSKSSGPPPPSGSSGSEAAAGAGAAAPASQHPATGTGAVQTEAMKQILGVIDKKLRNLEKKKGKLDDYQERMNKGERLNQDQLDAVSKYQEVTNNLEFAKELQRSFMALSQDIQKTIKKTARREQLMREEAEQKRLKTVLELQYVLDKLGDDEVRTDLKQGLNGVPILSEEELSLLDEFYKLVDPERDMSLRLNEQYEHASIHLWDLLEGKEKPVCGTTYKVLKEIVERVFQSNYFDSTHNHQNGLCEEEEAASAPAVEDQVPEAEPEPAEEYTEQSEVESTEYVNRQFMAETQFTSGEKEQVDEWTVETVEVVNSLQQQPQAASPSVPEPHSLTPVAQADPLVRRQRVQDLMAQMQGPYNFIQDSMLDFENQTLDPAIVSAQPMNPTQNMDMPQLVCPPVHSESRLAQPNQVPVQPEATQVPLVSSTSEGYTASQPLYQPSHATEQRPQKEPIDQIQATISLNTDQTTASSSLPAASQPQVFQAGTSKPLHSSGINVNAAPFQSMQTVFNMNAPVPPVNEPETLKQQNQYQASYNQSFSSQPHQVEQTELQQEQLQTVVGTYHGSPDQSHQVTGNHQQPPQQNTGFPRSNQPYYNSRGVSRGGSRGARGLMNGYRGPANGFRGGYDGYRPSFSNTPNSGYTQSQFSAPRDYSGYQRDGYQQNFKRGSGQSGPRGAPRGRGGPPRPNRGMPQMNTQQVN
UniProt Q8WUQ7: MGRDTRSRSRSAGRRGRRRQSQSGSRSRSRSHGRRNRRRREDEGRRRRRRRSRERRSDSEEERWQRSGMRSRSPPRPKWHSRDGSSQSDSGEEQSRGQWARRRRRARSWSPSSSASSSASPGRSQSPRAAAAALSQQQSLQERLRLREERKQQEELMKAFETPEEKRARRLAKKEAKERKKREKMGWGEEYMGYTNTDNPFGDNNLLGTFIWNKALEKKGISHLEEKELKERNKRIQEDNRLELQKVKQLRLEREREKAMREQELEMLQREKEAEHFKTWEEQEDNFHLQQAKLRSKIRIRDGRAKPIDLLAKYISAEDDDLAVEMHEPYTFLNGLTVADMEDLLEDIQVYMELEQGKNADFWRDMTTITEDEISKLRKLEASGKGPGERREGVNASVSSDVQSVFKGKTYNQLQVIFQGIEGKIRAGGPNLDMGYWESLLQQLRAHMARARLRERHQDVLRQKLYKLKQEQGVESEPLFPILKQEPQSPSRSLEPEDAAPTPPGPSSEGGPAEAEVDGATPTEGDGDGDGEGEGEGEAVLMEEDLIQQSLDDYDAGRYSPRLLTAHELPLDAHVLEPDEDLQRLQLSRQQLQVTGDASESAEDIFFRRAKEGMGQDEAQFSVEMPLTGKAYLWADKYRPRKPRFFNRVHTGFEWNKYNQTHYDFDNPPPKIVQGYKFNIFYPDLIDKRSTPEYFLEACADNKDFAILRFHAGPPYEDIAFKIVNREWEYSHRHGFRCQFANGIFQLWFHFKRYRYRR
UniProt Q8TCD1: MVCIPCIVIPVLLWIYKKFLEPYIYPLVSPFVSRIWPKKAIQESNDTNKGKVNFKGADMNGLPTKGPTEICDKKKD
UniProt Q9NS00: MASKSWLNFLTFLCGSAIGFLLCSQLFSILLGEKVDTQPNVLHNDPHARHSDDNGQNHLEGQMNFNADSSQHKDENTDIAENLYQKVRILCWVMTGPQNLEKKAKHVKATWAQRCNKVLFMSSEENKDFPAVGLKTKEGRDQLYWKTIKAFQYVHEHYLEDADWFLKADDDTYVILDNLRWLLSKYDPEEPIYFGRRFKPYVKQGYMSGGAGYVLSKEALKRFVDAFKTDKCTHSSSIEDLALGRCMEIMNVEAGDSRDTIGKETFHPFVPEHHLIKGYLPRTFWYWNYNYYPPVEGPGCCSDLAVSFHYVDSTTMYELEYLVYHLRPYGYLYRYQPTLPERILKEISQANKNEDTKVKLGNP
UniProt Q96LW7: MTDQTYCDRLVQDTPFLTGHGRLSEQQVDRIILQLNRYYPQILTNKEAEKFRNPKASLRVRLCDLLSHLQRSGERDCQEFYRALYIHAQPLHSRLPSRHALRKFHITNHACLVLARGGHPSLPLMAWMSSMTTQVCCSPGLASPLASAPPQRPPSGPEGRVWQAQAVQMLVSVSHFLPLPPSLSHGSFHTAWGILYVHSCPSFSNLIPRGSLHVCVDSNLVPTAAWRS
UniProt Q9BSJ5: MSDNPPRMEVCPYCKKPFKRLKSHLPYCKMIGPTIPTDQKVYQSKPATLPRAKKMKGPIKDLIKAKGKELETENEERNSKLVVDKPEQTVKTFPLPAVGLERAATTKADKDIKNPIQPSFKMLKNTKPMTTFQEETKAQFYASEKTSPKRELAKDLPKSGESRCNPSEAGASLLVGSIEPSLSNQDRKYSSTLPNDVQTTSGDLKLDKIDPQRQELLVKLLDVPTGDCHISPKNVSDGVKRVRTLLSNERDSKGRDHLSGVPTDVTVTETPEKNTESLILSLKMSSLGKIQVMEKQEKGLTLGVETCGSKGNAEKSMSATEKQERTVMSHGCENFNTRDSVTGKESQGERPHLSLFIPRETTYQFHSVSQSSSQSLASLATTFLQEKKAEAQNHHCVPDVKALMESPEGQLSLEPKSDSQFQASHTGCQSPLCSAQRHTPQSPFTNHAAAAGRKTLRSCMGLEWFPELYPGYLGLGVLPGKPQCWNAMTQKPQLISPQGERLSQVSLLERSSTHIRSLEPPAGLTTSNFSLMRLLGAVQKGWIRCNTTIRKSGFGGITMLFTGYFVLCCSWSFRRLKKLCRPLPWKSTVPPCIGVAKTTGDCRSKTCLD
UniProt P04003: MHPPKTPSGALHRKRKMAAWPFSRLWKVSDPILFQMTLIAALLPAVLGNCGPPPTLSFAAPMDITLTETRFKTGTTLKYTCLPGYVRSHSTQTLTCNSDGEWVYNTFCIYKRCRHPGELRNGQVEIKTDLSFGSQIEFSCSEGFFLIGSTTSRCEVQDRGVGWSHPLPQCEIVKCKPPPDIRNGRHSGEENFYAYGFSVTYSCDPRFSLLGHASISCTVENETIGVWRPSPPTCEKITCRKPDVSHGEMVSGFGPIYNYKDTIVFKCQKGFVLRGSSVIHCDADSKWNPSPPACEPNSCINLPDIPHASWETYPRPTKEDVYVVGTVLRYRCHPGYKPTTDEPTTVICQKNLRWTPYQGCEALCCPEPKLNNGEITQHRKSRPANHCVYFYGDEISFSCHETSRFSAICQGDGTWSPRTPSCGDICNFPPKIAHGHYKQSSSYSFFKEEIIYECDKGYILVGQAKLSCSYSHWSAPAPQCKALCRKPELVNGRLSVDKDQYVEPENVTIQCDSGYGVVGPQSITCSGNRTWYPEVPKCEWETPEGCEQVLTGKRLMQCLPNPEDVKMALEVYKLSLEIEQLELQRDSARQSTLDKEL
UniProt Q8N999, whole entry, looked up: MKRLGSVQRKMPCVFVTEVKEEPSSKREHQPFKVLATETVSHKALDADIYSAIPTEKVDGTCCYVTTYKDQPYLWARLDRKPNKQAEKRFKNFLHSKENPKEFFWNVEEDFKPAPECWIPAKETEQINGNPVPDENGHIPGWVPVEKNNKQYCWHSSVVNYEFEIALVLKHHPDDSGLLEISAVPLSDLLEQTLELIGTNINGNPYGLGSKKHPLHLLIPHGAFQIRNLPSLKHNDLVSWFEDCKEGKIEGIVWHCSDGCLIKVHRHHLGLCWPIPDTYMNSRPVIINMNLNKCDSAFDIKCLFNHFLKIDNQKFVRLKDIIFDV
UniProt O60566, whole entry, looked up: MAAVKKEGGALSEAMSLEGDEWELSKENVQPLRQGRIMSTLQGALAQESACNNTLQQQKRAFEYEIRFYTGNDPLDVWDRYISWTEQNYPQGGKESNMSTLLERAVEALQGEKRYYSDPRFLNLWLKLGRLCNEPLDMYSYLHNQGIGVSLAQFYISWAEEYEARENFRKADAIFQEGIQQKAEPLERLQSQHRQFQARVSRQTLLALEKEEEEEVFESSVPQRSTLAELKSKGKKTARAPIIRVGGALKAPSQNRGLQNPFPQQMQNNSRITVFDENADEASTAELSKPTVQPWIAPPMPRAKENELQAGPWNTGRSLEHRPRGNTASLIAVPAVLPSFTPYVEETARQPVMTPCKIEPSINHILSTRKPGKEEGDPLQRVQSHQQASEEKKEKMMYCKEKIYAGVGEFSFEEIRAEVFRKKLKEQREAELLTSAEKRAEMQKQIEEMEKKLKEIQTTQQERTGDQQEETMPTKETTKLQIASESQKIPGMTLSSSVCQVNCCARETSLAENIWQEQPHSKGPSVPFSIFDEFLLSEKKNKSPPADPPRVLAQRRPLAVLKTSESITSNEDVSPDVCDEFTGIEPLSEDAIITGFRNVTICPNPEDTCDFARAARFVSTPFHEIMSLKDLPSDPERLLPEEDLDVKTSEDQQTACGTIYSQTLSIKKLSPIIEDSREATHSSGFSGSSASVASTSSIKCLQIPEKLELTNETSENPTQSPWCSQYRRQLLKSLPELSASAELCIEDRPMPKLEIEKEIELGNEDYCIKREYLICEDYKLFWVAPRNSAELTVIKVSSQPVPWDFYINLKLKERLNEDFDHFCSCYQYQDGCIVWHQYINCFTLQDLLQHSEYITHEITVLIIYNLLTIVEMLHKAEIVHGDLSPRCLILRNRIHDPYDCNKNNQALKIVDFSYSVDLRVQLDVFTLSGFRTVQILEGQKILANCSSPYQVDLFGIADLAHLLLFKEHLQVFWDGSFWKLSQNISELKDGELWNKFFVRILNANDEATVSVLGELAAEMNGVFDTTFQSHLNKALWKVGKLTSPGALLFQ

Compound in this assay: c1cc(OCCN2CCCCC2)cc(-c2n[nH]c3ccc(-c4nnc[nH]4)cc23)c1
As to the kind of experiment: log2 fold change, soluble protein after heating vs DMSO (PISA); higher = thermal stabilisation; K562 cells, 10 uM, 30 min; active = over 0.2 and 3.5 SD of the protein, either way, in both replicates (recomputed). An outline of the steps:
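Soluble protein was quantified by TMTpro 16plex LC-MS/MS after channel sums were equalised. It was obtained as the supernatant after 21,000xg for 90 min from pooled aliquots of K562 cells (2×10^6 cells/mL, 10 μM compound, 30 min) heated for 3 min across 48°C-58°C and extracted in PBS with 0.5% NP-40 at 4°C. Thermal stability values are relative to control samples and come from duplicates. They are given as log2 fold changes.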
As for C8orf76 (UniProt Q96K31), the log2 fold change was inactive: 0.056.
Take C6orf89 isoform 2 (UniProt Q6UWU4): the log2 fold change is inactive: -0.017.
CALCOCO1 (UniProt Q9P1Z2): the log2 fold change is inactive: 0.025.
Then CALU isoform 4 (UniProt O43852), with inactive: -0.032; and C1GALT1C1 (UniProt Q96EU7), with inactive: -0.072; and C9orf40 (UniProt Q8IXQ3), with inactive: -0.009.
On to CAPRIN1 (UniProt Q14444), for which the log2 fold change was inactive: -0.141.
For C11orf68 (UniProt Q9H3H3) the value was inactive: 0.028; for CACTIN isoform 2 (UniProt Q8WUQ7), inactive: -0.175; for C18orf32 (UniProt Q8TCD1), inactive: -0.019.
For C1GALT1 (UniProt Q9NS00) the value was inactive: -0.096; for CARD19 isoform 2 (UniProt Q96LW7), inactive: 0.003; for C17orf80 (UniProt Q9BSJ5), inactive: -0.014.
For CANX isoform 2 (UniProt P27824) the value was inactive: -0.072; for C4BPA (UniProt P04003), inactive: 0.216.
Consider C12orf29 (UniProt Q8N999), for which the log2 fold change was inactive: -0.039.
For CAB39 (UniProt Q9Y376) the value was inactive: -0.012; for BUB1B isoform 3 (UniProt O60566), inactive: 0; for BTN2A1 (UniProt Q7KYR7), inactive: -0.19.
For C12orf73 (UniProt Q69YU5) the value was inactive: -0.003.
Then C9orf78 (UniProt Q9NZ63), with inactive: 0.027.
